From PubChem BioAssay AID504444 (National Center for Advancing Translational Sciences (NCATS), 2011)
In all, about 360,000 compounds went through this assay and about 7,500 (2.1%) were called active. Inconclusive results, whose numbers are uncertain, are shown with a selection of clear calls. Calls come from the whole dose curve; as a rule, active = well fitted inhibition curve with a large enough effect; inconclusive = small, poorly fitted or top-dose-only effect, or effect the other way; inactive = flat fitted curve, though single readings scatter. A potency beside an inconclusive call is a rough fit, not a confirmed value.

Experiment: Nrf2 qHTS screen for inhibitors; note: nearly all actives have a fitted effect of over 60% in size
Conditions: A549 ARE-Fluc reporter, luciferase luminescence, 18-24 h; activity change, negative = inhibition: at 46 µM (top of the series)
Summary of the method: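 Reporter: ARE-Fluc in A549. Exposure: 18-24 h, 37 °C, 5% CO2, 5% FBS OPTI-MEM. Readouts: fluorescent cytotoxicity (CellTiter-Fluor), then luminescent Nrf2 signal after BugLite.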
% is set by controls: 0 for no effect and ±100 for the full control effect; potency is the fitted concentration of half-maximal effect.

SMILES	Potency	activity change, negative = inhibition
O=C1CCc2cc(S(=O)(=O)N3CCC(C(=O)Nc4nccs4)CC3)ccc2N1	inconclusive: 29.1 µM [falling, partial curve, poor fit]	
CCOc1ccc(OCC)c(NC(=O)CN(C)S(=O)(=O)c2ccc3nc(C)sc3c2)c1	inconclusive: 29.1 µM [falling, single point]	
C/C(=N\NC(=O)C(=O)Nc1cccc(C(F)(F)F)c1)c1ccc(Cl)s1	inconclusive: 0.366 µM [falling, full curve, poor fit]	
O=c1c2ccccc2cnn1CCOc1ccccc1	inconclusive: 29.1 µM [falling, single point]	
Cc1ccccc1Nc1nnc(-c2ccc(C)c(S(=O)(=O)N3CCCCC3)c2)c2ccccc12	inconclusive: 9.2 µM [falling, partial curve, poor fit]	
C=CCn1c(-c2oc3nc(-c4ccccc4)cc(-c4ccccc4)c3c2N)n[nH]c1=S	inconclusive: 20.6 µM [falling, single point]	
Cc1ccc(S(=O)(=O)N2CCn3cccc3C2C)cc1 (configuration not stated)	inactive	
Cc1ccccc1C(=O)Nc1ccc2oc(-c3ccc(Cl)c(Cl)c3)nc2c1	inactive	
CCCS/C(N)=N/N=C/c1cc(C)ccc1O	inconclusive: 32.6 µM [activator, single point]	
Cc1ccc(S(=O)(=O)N2[C@@H](c3ccc(Br)cc3)C(C(=O)O)=C[C@H]2C(C)(C)C)cc1	inconclusive: 16.4 µM [falling, single point]	
O=C(c1ccc(Cl)c(Cl)c1)N1CCC(=O)N(C(COCc2cccc(C(F)(F)F)c2)Cc2ccccc2)CC1 (configuration not stated)	active: 20.6 µM	
CC1(C(=O)N2CC3(CC(c4cccc(NC(=O)CC(c5ccccc5)c5ccccc5)c4)=NO3)C[C@@H]2C(N)=O)CC1 (some centres not stated)	inactive	
Cc1cc(C(=O)NC2CCC(C)CC2)c(C)o1 (configuration not stated)	inconclusive: 2.91 µM [activator, partial curve, poor fit]	
CCOC(=O)c1ccc(NC(=O)N2CCN(c3ccccn3)CC2)cc1	inconclusive: 20.6 µM [falling, single point]	
CCc1cc2c(NC3CCCC3)ncnc2s1	inconclusive: 29.1 µM [falling, single point]	
Cc1ccc(N=c2sc(C)c(C)n2C)cc1	inconclusive: 18.4 µM [activator, partial curve]	
CCOC(=O)c1ccc(/C=C2/C=C(c3ccccc3)N(c3ccc(Cl)c(C(=O)O)c3)C2=O)cc1	inconclusive: 29.1 µM [falling, single point]	
COc1ccc(Nc2ncnc3c2nc2n3CCCC2)cc1Cl	inconclusive: 1.16 µM [activator, partial curve]	
O=C(NCC(c1cccnc1)N1CCc2ccccc21)C(=O)Nc1ccccc1F (configuration not stated)	inconclusive: 7.31 µM [activator, partial curve, poor fit]	
CC(NC(=O)c1cc(-c2ccc(Cl)cc2)on1)c1ccccc1 (configuration not stated)	inconclusive: 29.1 µM [falling, single point]	
CCN1C(=O)c2ccc(C(=O)Nc3ncc(C)s3)cc2C1=O	inconclusive: 11.6 µM [activator, partial curve]	

Full records from above.
`COc1ccc(Nc2ncnc3c2nc2n3CCCC2)cc1Cl` is entered as Potency: inconclusive: 1.16 µM [activator, partial curve]
`CC1(C(=O)N2CC3(CC(c4cccc(NC(=O)CC(c5ccccc5)c5ccccc5)c4)=NO3)C[C@@H]2C(N)=O)CC1` (some centres not stated) is entered as Potency: inactive
`O=C(NCC(c1cccnc1)N1CCc2ccccc21)C(=O)Nc1ccccc1F` (configuration not stated) is entered as Potency: inconclusive: 7.31 µM [activator, partial curve, poor fit]

(continued)

SMILES	Potency	activity change, negative = inhibition
Cc1ccc(C(=O)Oc2cccc(-n3cnnn3)c2)cc1	inconclusive: 16.4 µM [falling, single point]	
N#CC(=C1SC=CS1)c1nc(-c2ccccc2)cs1	inconclusive: 8.2 µM [activator, partial curve]	
Cc1cccc(/C=C(\C(=O)C(=O)O)c2ccc3ccccc3n2)c1	inconclusive: 20.6 µM [activator, single point]	
CCSc1nc(-c2ccccc2)nc(C(Cl)Cl)n1	inconclusive: 20.6 µM [falling, single point]	
Cc1ccc(OCc2occc2C(=O)O)cc1	inconclusive: 29.1 µM [activator, single point]	
Cc1ccc(Cn2c(C)c3cnn(CC(=O)N4CCN(c5ccc(F)cc5)CC4)c(=O)c3c2C)cc1	inconclusive: 16.4 µM [falling, single point]	
O=c1c2ccccc2nc2n1CCc1c-2[nH]c2ccccc12	inconclusive: 0.461 µM [activator, full curve, poor fit]	
O=C(NCCN1CCOCC1)NC1(C(F)(F)F)Oc2ccccc2O1	inconclusive: 23.1 µM [activator, single point]	
COc1cc(OC)c(NC(=O)c2cn(C)c(=O)c3cc(OC)c(OC)cc23)cc1Cl		inactive: -19.5% [at 9.27 µM]
COc1ccc(NC(=S)N2N=CCC2c2ccccc2)cc1 (configuration not stated)	inconclusive: 0.92 µM [activator, full curve, poor fit]	
O=S(=O)(c1ccc(F)cc1)N1CCCC(c2nc(-c3ccc(F)cc3)no2)C1 (configuration not stated)	inconclusive: 14.6 µM [falling, partial curve]	
O=C(Nc1ccc(S(=O)(=O)N2CCOCC2)cc1)c1ccc(Cl)cc1Cl	inconclusive: 23.1 µM [falling, single point]	
COc1ccc(OC)c(C2CC(=O)c3c([nH]c(C(=O)OCC4CCCO4)c3C)C2)c1 (configuration not stated)	inconclusive: 25.9 µM [falling, single point]	
CS(=O)(=O)N1CCc2cc(C(=O)Nc3ccc(COCC(F)(F)F)cc3)ccc21	inconclusive: 16.4 µM [falling, single point]	
COc1cc(NC(=O)c2ccccc2[N+](=O)[O-])ccc1NC(=O)c1cc2ccccc2o1	inconclusive: 18.4 µM [falling, single point]	
O=C(/C=C/C=C/c1ccc2c(c1)OCO2)N1CCCCC1	inconclusive: 20.6 µM [activator, partial curve]	
COc1ccc(CCNC(=O)C2CCCN2C(=O)Nc2ccc(Cl)cc2)cc1OC (configuration not stated)	inconclusive: 18.4 µM [falling, partial curve, poor fit]	
Cn1c(=O)c(=O)n(C)c2cc(S(=O)(=O)N3CCN(Cc4ccccc4)CC3)ccc21	inconclusive: 14.6 µM [falling, partial curve, poor fit]	
O=C(CN1C(=O)C2(SCC(=O)N2c2ccc(Cl)cc2)c2ccccc21)NCCc1ccccc1 (configuration not stated)	inactive	
CCC(=O)OCC(=O)[C@@]1(OC(=O)CC)[C@@H](C)C[C@H]2[C@@H]3CCC4=CC(=O)C=C[C@]4(C)[C@@]3(Cl)[C@@H](O)C[C@@]21C	active: 0.0058 µM	
CC(C)Oc1ccc(C(=O)Nc2nc3c(s2)CC(C(C)(C)C)CC3)cc1 (configuration not stated)	inactive	

SMILES	Potency	activity change, negative = inhibition
O=C(CNC(=O)c1ccco1)Nc1ccc(N2CCCCCC2)cc1	inconclusive: 11.6 µM [activator, partial curve, poor fit]	
COC(=O)c1[nH]c2ccc(Cl)cc2c1NC(=O)CN1CCc2cc(OC)c(OC)cc2C1	inconclusive: 25.9 µM [falling, single point]	
Cc1cc(C)cc(C(=O)NC(CC(N)=O)c2ccc(N3CCC(Br)CC3)c([N+](=O)[O-])c2)c1 (configuration not stated)	inconclusive: 8.2 µM [activator, partial curve]	
CCOc1ccc(NC(=O)CNc2cccc(S(=O)(=O)N3CCCCCC3)c2)cc1OCC	inconclusive: 20.6 µM [falling, single point]	
CCCOc1ccc(C(C)=O)cc1CSCCC#N	inconclusive: 18.4 µM [activator, single point]	
CCc1cc2c(s1)c1cnn(Cc3ccccc3F)c(=O)c1n2C	inconclusive: 20.6 µM [falling, partial curve, poor fit]	
COC(=O)c1ccc(OC)c(CSc2nnc(COc3cccc(C)c3)o2)c1	inconclusive: 32.6 µM [falling, single point]	
CCCCCCn1c(-c2cccs2)n[nH]c1=S	inactive	
Cc1ccc(NS(=O)(=O)c2cc(C(=O)Nc3cccc(N(C)S(C)(=O)=O)c3)ccc2C)c(C)c1	inconclusive: 23.1 µM [falling, single point]	
CC(=O)N1CCc2cc(S(=O)(=O)CCC(=O)N3CCN(c4ccccc4F)CC3)ccc21	inconclusive: 3.66 µM [falling, partial curve, poor fit]	
O=C1NC(=Nc2ccc(Cl)cc2)SC1Cc1cc(Cl)ccc1Cl (configuration not stated)	inconclusive: 23.1 µM [falling, partial curve, poor fit]	
CN1C(C(=O)NCc2ccccc2)CC2Cn3c(nc4cc5ccccc5cc43)C21 (configuration not stated)	inconclusive: 0.0041 µM [falling, full curve, poor fit]	
CCCN1CNc2c(c(=O)[nH]c(=S)n2Cc2ccc(OC)c(OC)c2)C1	inactive	
COC(=O)c1cccc(NC(=O)c2ccc3c(c2)C(=O)N(C(C)(C)C)C3=O)c1	inconclusive: 29.1 µM [falling, single point]	
Cc1cc(NC(=O)c2cccc(F)c2)ncc1NC(=O)c1ccco1	inconclusive: 0.184 µM [activator, full curve, poor fit]	
Cc1cc2ccccn2c1C(=O)c1ccccc1Br	inconclusive: 20.6 µM [activator, single point]	
CCOc1ccc(/C=N/Nc2cc(C)nc(N3CCOCC3)n2)cc1	inconclusive: 23.1 µM [activator, partial curve]	
CC(=O)c1csc(-c2ccccc2)n1	inconclusive: 8.2 µM [activator, partial curve, poor fit]	
Cc1ccc(CNC(=O)CCC2CCCN(C(=O)c3ccc4c(c3)OCO4)C2)o1 (configuration not stated)	inactive	
CCCC(O)(CCC)C(=O)NN(C(=O)CCl)c1cccc(C)c1	inconclusive: 20.6 µM [falling, single point]	
